The campaign covered roughly 1,300 compounds. Fewer than 10 were called active. Not shown: some 9% with an inconclusive outcome. The call rests on the fitted dose curve; in most records, active means well fitted curve in the direction sought with a large enough effect; inconclusive means small, poorly fitted or top-dose-only effect, or another doubt; inactive means no such curve, though single readings can be large or run the other way. Some of the results follow.

The experiment in a line: qHTS for antagonists of the Thyroid Stimulation Hormone Receptor: Hit Validation in Parental Cell Line. Further: 0% is about no effect. The conditions noted are these: parental HEK293 cells lacking TSHR, counter-screen; series mostly up to 56.9 µM; activity change, negative = inhibition: at the top concentration. An outline of the steps: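 Counterscreen in untransfected parental HEK-EM 293 cells. Lysate cAMP displaces cAMP-d2 from cryptate-tagged anti-cAMP antibody, and homogeneous TR-FRET is read at 665 nm with 337 nm excitation after stimulation.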
In the case of `COC(=O)c1ccc(NC(=O)c2nc(S(=O)(=O)Cc3cccc(C)c3)ncc2Cl)cc1`, the “activity change, negative = inhibition” value was inactive: 5.51%.

With `O=C(CSc1n[nH]c(=O)n1C1CC1)c1ccc2c(c1)OCCO2`, the “activity change, negative = inhibition” value is inactive: -0.511%. To `CN(Cc1ccco1)S(=O)(=O)c1csc(C(N)=O)c1` belongs inactive: 3.14%.

On to `COc1cccc(C(=O)Nc2ccc(NC(=O)C3CCCCC3)nc2)c1`, for which the “activity change, negative = inhibition” value was inactive: -5.39%. For `Cc1cccc(OCC(=O)Nc2nc3ccc([N+](=O)[O-])cc3s2)c1C` the value was inactive: 3.08%; for `CCSc1ccc(C(=O)Nc2ccc(Br)cn2)cc1[N+](=O)[O-]`, inactive: -5.48%. Regarding `Cc1ccc(C2=NS(=O)(=O)N(C)C(C(=O)NCc3ccc(F)cc3)=C2)cc1`, the “activity change, negative = inhibition” value was inactive: 2.08%. To `Cc1ccc(NC(=O)Nc2ccc3c(c2)OCO3)c(OC(F)F)c1` belongs inactive: 3.98%; to `CC1CCN(S(=O)(=O)c2nnc(NC(=O)c3cccc([N+](=O)[O-])c3)s2)CC1`, inactive: -6.2%; to `CCOc1ccc2nc(NC(=O)c3ccc(OCC4CCCO4)cc3)sc2c1` (stereo unspecified), inactive: -9.31%. To `COc1ccc(N2CCN(c3ncnc4sc(C(=O)NCC5CCCO5)c(C)c34)CC2)cc1` (stereo unspecified) belongs inactive: -0.502%; to `CCOc1ccc(C2NC(=O)c3ccccc3O2)cc1OC` (stereo unspecified), inactive: 4.73%; to `COc1ccc(NS(=O)(=O)c2cn(C)cn2)cc1Cl`, inactive: 1.63%. To `COc1ccc(-c2cn(CCCOCc3ccccc3)nn2)cc1` belongs inactive: 0.0377%; to `CCC(C)NC(=O)CN1C(=O)CSc2ccc(S(=O)(=O)N3CCCC3)cc21` (stereo unspecified), inactive: 1.36%; to `COc1ccc(-c2sc3ccc(N4CCOCC4)cc3c2C#CCO)cc1`, inactive: -3.71%. On to `CCOc1ccc2nc(NC(=O)CS(=O)(=O)c3ccccc3)sc2c1`, for which the “activity change, negative = inhibition” value was inactive: 2.78%. On to `COc1ccc(S(=O)(=O)Nc2ccccc2C(=O)Nc2nc(-c3ccc(F)cc3)cs2)cc1OC`, for which the “activity change, negative = inhibition” value is inactive: -6.89%. For `COc1ccc(NC(=O)/C(Cl)=C(/Cl)S(=O)(=O)Cc2ccccc2)cn1` the value was inactive: -9.15%. For `COC(=O)c1c(NC(NC(C)=O)C(Cl)(Cl)Cl)sc2c1CCCC2` (stereo unspecified) the value was inactive: -3.47%; for `O=c1[nH]cccc1-c1nc2ccccc2n1Cc1ccc(F)cc1`, inactive: 0.801%. `O=C(NC1CCCCC1)C(c1cccs1)N(Cc1cccs1)C(=O)c1cccs1` (stereo unspecified): the “activity change, negative = inhibition” value was inactive: -0.269%.

On to `CCCN1CCN(CCCNC(=O)Cn2nc(C)n3c(cc4cc(OC)ccc43)c2=O)CC1`, for which the “activity change, negative = inhibition” value is inactive: -0.389%. For `COc1ccc(OC)c(NC(=O)c2cc(S(=O)(=O)NCc3ccco3)ccc2F)c1` the value was inactive: 1.21%. For `Clc1ccc(CCNc2ncnc3nc[nH]c23)cc1` the value was inactive: 1.2%. Regarding `COc1cc([N+](=O)[O-])cc(/C=C2/SC(=S)N(Cc3ccccc3)C2=O)c1O`, the “activity change, negative = inhibition” value was inactive: 0.0238%. For `CC1CN(C(=O)CCn2c(=O)oc3ccccc32)CC(C)O1` (stereo unspecified) the value was inactive: 1.44%; for `Cc1ccc(CCNC(=O)CN2C(=O)COc3ccc(S(=O)(=O)N4CCC(C)CC4)cc32)cc1`, inactive: 4.23%.

In the case of `CCn1c(Cl)c(C=O)s/c1=N\S(=O)(=O)c1ccccc1`, the “activity change, negative = inhibition” value is inactive: -7.93%.

In the case of `NS(=O)(=O)c1ccc(CNC(=O)CCS(=O)(=O)Cc2ccccc2)cc1`, the “activity change, negative = inhibition” value is inactive: 4.5%. For `Cc1cc(C)c(-c2csc(NC(=O)/C=C/c3cccs3)n2)c(C)c1` the value was inactive: -0.163%; for `CC(=O)NC1=C(Nc2ccc(N(C)C)cc2)C(=O)c2ccccc2C1=O`, inactive: -8.71%; for `NC(=O)NC[C@@H]1CC[C@@H](Cc2ccc(-c3ccccc3)cc2)O1`, inactive: 0.229%. As for `O=C(O)c1ccc(Cl)cc1Nc1nc2cc(Cl)ccc2o1`, the “activity change, negative = inhibition” value is inactive: -3.11%. For `Clc1ccc2c(c1)-c1nnc(Br)n1-c1ccccc1S2` the value was inactive: 6.35%. To `CNS(=O)(=O)c1cccc(C(=O)OCC(=O)N2c3ccccc3NC(=O)C2(C)C)c1` belongs inactive: -0.504%; to `O=C(Nc1ccc(C(=O)NCc2ccccc2Cl)cc1)C1=CSCCO1`, inactive: 1.3%; to `CN(C)c1ccc(/C=C/c2cc[n+](C)cc2)cc1`, inactive: -7.72%. To `CN1/C(=C\C(=O)c2oc3ccccc3c2N)C(C)(C)c2ccccc21` belongs inactive: -10.2%; to `O=C(COC(=O)c1ccccc1NS(=O)(=O)c1cccs1)NCC12CC3CC(CC(C3)C1)C2`, inactive: 3.82%; to `C=CCN1C(=O)/C(=C/c2ccc(OC(C)=O)c(OCC)c2[N+](=O)[O-])SC1=S`, inactive: -2.38%. Regarding `CN(C)/C=C(/C(=O)c1ccc(Cl)cc1)S(=O)(=O)c1ccc(Cl)cc1`, the “activity change, negative = inhibition” value is inactive: 4.41%. To `COc1cc(NS(=O)(=O)c2ccc(NC(=O)c3ccc(F)cc3)cc2)ncn1` belongs inactive: 1.88%; to `Cc1cc(C)n2c(C)nnc2c1`, inactive: 6.7%; to `CC1CC1C(=O)N1CCN(S(=O)(=O)c2cc(C(F)(F)F)cc(C(F)(F)F)c2)CC1` (stereo unspecified), inactive: 3.34%. With `CC(C)c1cc(=O)n2[nH]c(SCc3ccccc3)nc2n1`, the “activity change, negative = inhibition” value was inactive: -3.58%.

For the compound `COc1ccccc1C(=O)COC(=O)/C=C/c1ccccc1`, the “activity change, negative = inhibition” value was inactive: 3.14%. Consider `Cc1cccc(-c2noc(CN(C)C(=O)c3ccco3)n2)c1`, for which the “activity change, negative = inhibition” value is inactive: 0.764%. To `CN(C)C(=O)[C@H]1C[C@H]1[C@@H](O)[C@H](CO)NC(=O)[C@H](COCc1ccccc1)NC(=O)OC(C)(C)C` belongs inactive: 4.47%; to `CCOc1ccccc1/C=C/c1onc(C)c1S(=O)(=O)N1CCC(C(=O)N2CCCCCC2)CC1`, inactive: 4.62%; to `CCn1c(=NC(=O)CSC(C)=O)sc2ccccc21`, inactive: 0.315%.

Take `Cc1cccc(NC(=O)C2CCN(S(=O)(=O)c3ccc4c(c3)NC(=O)CO4)CC2)c1`: the “activity change, negative = inhibition” value was inactive: -2.44%. For `N#Cc1cccc(NC(=O)COC(=O)c2cc(S(=O)(=O)Nc3ccccc3Cl)ccc2O)c1` the value was inactive: -6.09%. To `CC1=NN(C(N)=S)C(=O)C1N=Nc1c(Br)cc(Br)cc1Br` (stereo unspecified) belongs inactive: -9.64%.

With `Cc1cc(C#N)c(SCC(N)=O)nc1-c1ccc(F)cc1`, the “activity change, negative = inhibition” value is inactive: 8.09%. For `CC(C)(C)C(=O)NC(=S)NNC(=O)c1ccc(-c2ccccc2)cc1` the value was inactive: -5.87%. To `COCC(C)n1c(COc2ccccc2F)nnc1SCc1c(C)noc1C` (stereo unspecified) belongs inactive: 2.74%; to `N=c1oc2cc(O)ccc2cc1C(=O)Nc1ccc(Br)cc1`, inactive: -11.5%. To `Cc1csc(NC(=O)c2cc3c(s2)CCCC3)n1` belongs inactive: -0.817%; to `COc1cc(C(C)=O)ccc1OCC(=O)Nc1ccc(C)c(S(=O)(=O)N2CCCCCC2)c1`, inactive: -6.36%. In the case of `CN(c1ccc(C(=O)NCCSCc2ccccc2)cc1)S(=O)(=O)c1ccccc1`, the “activity change, negative = inhibition” value is inactive: -8.58%. For `Brc1ccc(-c2nnc(-c3cccc(Br)c3)o2)cc1` the value was inactive: 5.65%; for `Cc1ccc(SC(CC(=O)c2ccc(C(C)(C)C)cc2)C(=O)O)cc1` (stereo unspecified), inactive: -0.787%. In the case of `O=c1nc(/C=C/c2ccccc2C(F)(F)F)cc(C(F)(F)F)[nH]1`, the “activity change, negative = inhibition” value is inactive: 1.4%. Consider `O=C(Nc1nc2ccc(F)cc2s1)C1CCN(S(=O)(=O)c2cc([N+](=O)[O-])ccc2Cl)CC1`, for which the “activity change, negative = inhibition” value is inactive: -2.66%.

In the case of `COc1ccccc1NS(=O)(=O)c1cc(NC(=O)c2ccc3c(c2)OCCO3)ccc1C`, the “activity change, negative = inhibition” value is inactive: -1.4%.

Values taken from PubChem BioAssay AID602441 (National Center for Advancing Translational Sciences (NCATS), 2012).
